Data from PMC9938639.
These are yes or no findings as the source states them, for the method shown. Binding seen in cells or lysates may run through a third protein. Some binding calls cover weakened binding; strength is not graded here.

Target: Epidermal growth factor receptor (mouse (endogenous in neural progenitor cells from C57BL/6 mice)) (UniProt Q01279)
Test: co-IP; Pierce Co-IP Kit; antibody against GPNMB or EGFR coupled to AminoLink Plus resin, IgG as negative control; pre-cleaned cell lysate (1 mg protein) in 25 mM Tris, 150 mM NaCl, 1 mM EDTA, 1% NP-40, 5% glycerol, pH 7.4; 4 °C for 2 h; Western blot with anti-GPNMB or anti-EGFR

- binding: binds
B1: Glycoprotein non-metastatic melanoma B (protein, UniProt Q99P91 23-574)
chain: KRFRDVLGHEQYPDHMREHNQLRGWSSDENEWDEHLYPVWRRGDGRWKDSWEGGRVQAVLTSDSPALVGSNITFVVNLVFPRCQKEDANGNIVYEKNCRNDLGLTSDLHVYNWTAGADDGDWEDGTSRSQHLRFPDRRPFPRPHGWKKWSFVYVFHTLGQYFQKLGRCSARVSINTVNLTAGPQVMEVTVFRRYGRAYIPISKVKDVYVITDQIPVFVTMSQKNDRNLSDEIFLRDLPIVFDVLIHDPSHFLNDSAISYKWNFGDNTGLFVSNNHTLNHTYVLNGTFNLNLTVQTAVPGPCPPPSPSTPPPPSTPPSPPPSPLPTLSTPSPSLMPTGYKSMELSDISNENCRINRYGYFRATITIVEGILEVSIMQIADVPMPTPQPANSLMDFTVTCKGATPMEACTIISDPTCQIAQNRVCSPVAVDGLCLLSVRRAFNGSGTYCVNFTLGDDASLALTSTLISIPGKDPDSPLRAVNGVLISIGCLAVLVTMVTILLYKKHKAYKPIGNCPRNTVKGKGLSVLLSHAKAPFFRGDQEKDPLLQDKPRTL
